Laboratory results from paper PMC6611904.

Amino acid sequences for entries named in this document (tags omitted).
UniProt Q653D5, entry or part of it: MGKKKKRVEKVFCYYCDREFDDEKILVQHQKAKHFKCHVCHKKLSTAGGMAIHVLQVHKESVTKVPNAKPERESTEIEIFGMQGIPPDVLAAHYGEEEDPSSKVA

Biological target: His-OsSUF4N (Oryza sativa) (UniProt Q653D5)
Assay: EMSA
Settings: EMSA: LightShift kit binding buffer, 5 ug protein, 0.02 uM probe, poly(dI-dC), 25 C 30 min, 5% PAGE; recombinant protein; residues 1-105; protein details: His (pET32a)

Sequence	binding result
ACAGTTAACTAAGTTTACGGAAATGGTATAAA (double strand) [Hd3a-e mu3]	binds
ACAGTTAACTAACGGTACGGAAATGGTATAAA (double strand) [Hd3a-e (Hd3a-WT)]	binds
ACAGTTGGATAACGGTACGGAAATGGTATAAA (double strand) [Hd3a-e mu1]	binds
ACAGTTAACTAACGGTACAAGAATGGTATAAA (double strand) [Hd3a-e mu5]	no binding
ACAGTTAACTAACGGTACGGAGGGGGTATAAA (double strand) [Hd3a-e mu6]	no binding
CGGAAATCGGAAATCGGAAATCGGAAATCGGAAAT (double strand) [5x elements]	binds
ACAGTTAACTAACGGCCTGGAAATGGTATAAA (double strand) [Hd3a-e mu4]	no binding
AGTATGAGTTTTGGAATTAAGGGGATACCGAAC (double strand) [RFT1-mu]	no binding
ACAGTTAACGGGCGGTACGGAAATGGTATAAA (double strand) [Hd3a-e mu2]	binds
ACAGTTAACTAACGGTACGGAAATTTGATAAA (double strand) [Hd3a-e mu7]	binds

Negatives hold for the conditions tested. At least one verdict rests on a figure or table, not on a statement of the authors. Construct, isoform or probe ends are uncertain for at least one entry.
